For 1 substance, binding results are on record in publication PMC9944699.

Amino acid sequences for entries named in this document (tags omitted). Residues count along the entry.
UniProt P35968, residues 20-1356: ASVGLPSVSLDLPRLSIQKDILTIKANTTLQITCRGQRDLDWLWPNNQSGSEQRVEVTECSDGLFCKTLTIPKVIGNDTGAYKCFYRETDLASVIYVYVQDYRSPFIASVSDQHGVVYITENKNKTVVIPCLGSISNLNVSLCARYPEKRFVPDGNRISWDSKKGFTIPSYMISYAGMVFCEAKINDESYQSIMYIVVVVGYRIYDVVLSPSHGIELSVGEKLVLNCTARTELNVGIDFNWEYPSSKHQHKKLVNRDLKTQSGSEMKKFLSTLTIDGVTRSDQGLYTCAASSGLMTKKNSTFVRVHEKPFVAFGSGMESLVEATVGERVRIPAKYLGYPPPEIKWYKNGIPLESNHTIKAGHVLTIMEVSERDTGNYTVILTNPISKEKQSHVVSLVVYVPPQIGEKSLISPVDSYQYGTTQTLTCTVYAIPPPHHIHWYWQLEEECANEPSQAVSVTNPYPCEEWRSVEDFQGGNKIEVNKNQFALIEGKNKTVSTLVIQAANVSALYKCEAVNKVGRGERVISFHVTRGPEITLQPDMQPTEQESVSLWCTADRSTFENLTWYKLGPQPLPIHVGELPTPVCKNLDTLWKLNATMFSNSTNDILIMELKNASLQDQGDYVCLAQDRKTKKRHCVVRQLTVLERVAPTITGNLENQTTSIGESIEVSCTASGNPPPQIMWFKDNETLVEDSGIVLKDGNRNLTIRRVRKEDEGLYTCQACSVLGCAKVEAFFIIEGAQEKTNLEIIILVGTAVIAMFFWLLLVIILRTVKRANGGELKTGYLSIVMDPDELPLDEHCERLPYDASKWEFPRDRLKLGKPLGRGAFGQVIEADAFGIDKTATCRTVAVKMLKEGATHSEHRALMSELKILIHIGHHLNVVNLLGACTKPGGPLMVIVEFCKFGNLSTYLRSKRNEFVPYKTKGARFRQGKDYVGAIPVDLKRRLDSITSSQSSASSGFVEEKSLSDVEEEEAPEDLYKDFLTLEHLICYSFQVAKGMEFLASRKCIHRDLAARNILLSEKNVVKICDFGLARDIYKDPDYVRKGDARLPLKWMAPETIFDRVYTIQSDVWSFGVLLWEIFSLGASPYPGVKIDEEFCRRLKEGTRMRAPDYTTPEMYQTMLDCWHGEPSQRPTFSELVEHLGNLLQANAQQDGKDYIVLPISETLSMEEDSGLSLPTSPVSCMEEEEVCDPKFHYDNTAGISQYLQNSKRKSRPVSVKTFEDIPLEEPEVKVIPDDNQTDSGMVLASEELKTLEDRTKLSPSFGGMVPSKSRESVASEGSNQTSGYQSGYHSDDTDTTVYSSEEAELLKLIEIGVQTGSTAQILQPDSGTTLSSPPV
UniProt Q16665: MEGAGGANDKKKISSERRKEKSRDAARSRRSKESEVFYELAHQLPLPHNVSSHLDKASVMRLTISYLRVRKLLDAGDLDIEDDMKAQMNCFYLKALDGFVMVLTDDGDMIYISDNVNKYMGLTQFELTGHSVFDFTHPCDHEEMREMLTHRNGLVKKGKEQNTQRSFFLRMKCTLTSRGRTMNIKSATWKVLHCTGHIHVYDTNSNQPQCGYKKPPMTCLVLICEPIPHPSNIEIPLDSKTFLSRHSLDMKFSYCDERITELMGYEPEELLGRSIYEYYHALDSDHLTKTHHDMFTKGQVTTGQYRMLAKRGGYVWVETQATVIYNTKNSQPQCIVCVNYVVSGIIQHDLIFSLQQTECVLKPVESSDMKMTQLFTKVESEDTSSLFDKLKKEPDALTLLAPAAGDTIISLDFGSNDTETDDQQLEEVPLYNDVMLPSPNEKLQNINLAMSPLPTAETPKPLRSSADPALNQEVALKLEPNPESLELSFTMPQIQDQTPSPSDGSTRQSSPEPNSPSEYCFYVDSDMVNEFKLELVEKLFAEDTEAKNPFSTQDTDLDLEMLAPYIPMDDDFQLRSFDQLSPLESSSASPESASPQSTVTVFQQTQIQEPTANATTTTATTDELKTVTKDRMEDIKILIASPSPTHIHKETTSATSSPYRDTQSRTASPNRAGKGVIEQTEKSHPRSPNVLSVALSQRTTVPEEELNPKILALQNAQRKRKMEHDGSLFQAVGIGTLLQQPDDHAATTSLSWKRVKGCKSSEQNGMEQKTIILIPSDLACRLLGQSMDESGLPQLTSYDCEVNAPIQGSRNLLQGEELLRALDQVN

This assay addresses VEGFR2 (human (endogenous in HUVEC)) (UniProt P35968). In words: co-IP; endogenous proteins in RIPA lysate of HUVEC (methods: HUVEC-C) after 200 μM CoCl2 treatment; precleared lysate incubated with HIF-1α and VEGFR2 antibodies 1 h at 4°C, Protein A/G agarose beads overnight at 4°C; western blotting. For orientation: In western blotting, separated proteins are transferred to a membrane and probed.

Results are given in words; binding and its absence hold for the method and conditions named. In cells and extracts the contact can be indirect. Some results given as binding are weak or reduced against the parent protein; the word gives no strength.

As to HIF-1a (from UniProt Q16665 1-826), the binding entry is on record as “binds”.
